These are yes or no findings as the source states them, for the method shown. Binding seen in cells or lysates may run through a third protein. Here binding means that the protein was enriched with, or labelled near, the bait; the list need not be complete.

The chains behind the UniProt entries cited, without tags or fusion partners.
UniProt P46940: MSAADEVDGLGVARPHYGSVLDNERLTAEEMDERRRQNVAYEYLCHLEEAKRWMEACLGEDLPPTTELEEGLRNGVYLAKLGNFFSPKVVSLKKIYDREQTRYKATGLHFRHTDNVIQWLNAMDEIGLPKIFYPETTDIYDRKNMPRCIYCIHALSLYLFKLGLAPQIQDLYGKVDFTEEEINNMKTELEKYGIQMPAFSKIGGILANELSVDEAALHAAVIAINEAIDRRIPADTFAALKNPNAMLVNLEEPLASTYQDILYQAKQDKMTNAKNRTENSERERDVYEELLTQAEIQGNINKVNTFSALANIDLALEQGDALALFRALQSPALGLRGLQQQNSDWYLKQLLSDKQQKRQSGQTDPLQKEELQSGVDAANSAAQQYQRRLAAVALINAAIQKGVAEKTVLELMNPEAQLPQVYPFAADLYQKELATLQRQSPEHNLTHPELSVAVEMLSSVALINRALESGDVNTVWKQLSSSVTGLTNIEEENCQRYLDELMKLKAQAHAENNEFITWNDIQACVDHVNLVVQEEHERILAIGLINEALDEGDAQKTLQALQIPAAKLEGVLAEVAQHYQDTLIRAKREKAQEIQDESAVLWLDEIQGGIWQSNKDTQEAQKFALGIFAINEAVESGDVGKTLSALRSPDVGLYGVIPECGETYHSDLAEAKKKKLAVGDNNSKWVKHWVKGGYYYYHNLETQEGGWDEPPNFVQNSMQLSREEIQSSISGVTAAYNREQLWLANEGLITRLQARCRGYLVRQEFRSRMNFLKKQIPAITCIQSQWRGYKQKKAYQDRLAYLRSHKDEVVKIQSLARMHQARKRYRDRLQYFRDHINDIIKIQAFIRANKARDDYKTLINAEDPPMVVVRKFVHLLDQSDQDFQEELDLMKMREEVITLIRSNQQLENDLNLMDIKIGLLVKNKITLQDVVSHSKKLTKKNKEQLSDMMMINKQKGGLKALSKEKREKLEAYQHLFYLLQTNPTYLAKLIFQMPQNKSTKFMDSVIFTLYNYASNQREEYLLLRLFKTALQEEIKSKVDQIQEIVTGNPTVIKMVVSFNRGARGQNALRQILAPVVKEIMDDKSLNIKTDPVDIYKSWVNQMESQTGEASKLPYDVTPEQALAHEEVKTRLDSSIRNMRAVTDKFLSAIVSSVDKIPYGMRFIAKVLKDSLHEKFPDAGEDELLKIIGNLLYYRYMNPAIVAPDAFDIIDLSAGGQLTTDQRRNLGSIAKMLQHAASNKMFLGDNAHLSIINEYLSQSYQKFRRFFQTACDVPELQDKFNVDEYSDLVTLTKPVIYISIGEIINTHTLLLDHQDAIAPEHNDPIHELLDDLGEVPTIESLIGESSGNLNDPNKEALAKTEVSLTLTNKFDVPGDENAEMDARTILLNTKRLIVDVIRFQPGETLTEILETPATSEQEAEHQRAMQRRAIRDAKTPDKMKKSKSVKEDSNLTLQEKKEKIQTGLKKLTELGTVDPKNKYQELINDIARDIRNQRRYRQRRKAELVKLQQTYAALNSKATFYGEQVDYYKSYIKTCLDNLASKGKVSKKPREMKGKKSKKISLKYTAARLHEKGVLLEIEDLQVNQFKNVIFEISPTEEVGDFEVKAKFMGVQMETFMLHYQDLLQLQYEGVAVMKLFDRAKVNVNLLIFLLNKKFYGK

In this assay the target is obesity-associated protein (FTO) (human (endogenous in MHCC97H)) (UniProt Q9C0B1). Put plainly: affinity purification with mass spectrometry; IP with an antibody against FTO from lysates of MHCC97H cells with AMD1 knock-down and control cells; mass spectrometry with open search strategy and Mascot search engine.

Turning to “Ras GTPase-activating-like protein 1 (IQGAP1) (from UniProt P46940 1-1657)”, the binding entry is listed as “binds”.
